Measurements: paper PMC4526116
No constants are given. Whether binding was seen depends on the method and setting. Binding seen in cells or lysates may run through a third protein. Some entries that bind do so weakly or less than the wild type. Sequences can lack the tags named with a protein.

Biological target: Flag-tagged wild-type UVRAG (UV irradiation resistance-associated gene protein) (human) (UniProt Q9P2Y5)
Assay: co-IP; whole-cell lysates of 293T transfected with Flag-UVRAG^WT or Flag-UVRAG^FS, immunoprecipitated with anti-Flag, immunoblotted with anti-CEP63

B1: centrosome protein CEP63 (protein, UniProt Q96MT8 1-703)
chain: MEALLEGIQNRGHGGGFLTSCEAELQELMKQIDIMVAHKKSEWEGRTHALETCLKIREQELKSLRSQLDVTHKEVGMLHQQVEEHEKIKQEMTMEYKQELKKLHEELCILKRSYEKLQKKQMREFRGNTKNHREDRSEIERLTAKIEEFRQKSLDWEKQRLIYQQQVSSLEAQRKALAEQSEIIQAQLVNRKQKLESVELSSQSEIQHLSSKLERANDTICANELEIERLTMRVNDLVGTSMTVLQEQQQKEEKLRESEKLLEALQEEKRELKAALQSQENLIHEARIQKEKLQEKVKATNTQHAVEAIRPREESLAEKKYTSQGQGDLDSVLSQLNFTHTSEDLLQAEVTCLEGSLESVSATCKQLSQELMEKYEELKRMEAHNNEYKAEIKKLKEQILQGEQSYSSALEGMKMEISHLTQELHQRDITIASTKGSSSDMEKRLRAEMQKAEDKAVEHKEILDQLESLKLENRHLSEMVMKLELGLHEAKEISLADLQENYIEALNKLVSENQQLQKDLMNTKSQLEISTQMCKKQNDRIFKPTHSRTTEFKNTEFKPTHGQHRHDGIKTEHYKTDLHSPRGQASDSINPMSRVLSPLSPQISPCSSTRSLTSYSLCKTHSLPSALDTNEANFSDTMSESMNDQEEFISSCSLPVSPLGSIATRFLEEEELRSHHILERLDAHIEELKRESEKTVRQFTALK
  binding: binds
